# Measured values reported in patent US20110117106A1, “USES OF CALPAIN INHIBITORS TO INHIBIT INFLAMMATION” (priority 2008, published 2011).
# By UniProt entry, the sequences of proteins in these tests, tags left out. Residues count along the entry.
# UniProt P12830, residues 155-882: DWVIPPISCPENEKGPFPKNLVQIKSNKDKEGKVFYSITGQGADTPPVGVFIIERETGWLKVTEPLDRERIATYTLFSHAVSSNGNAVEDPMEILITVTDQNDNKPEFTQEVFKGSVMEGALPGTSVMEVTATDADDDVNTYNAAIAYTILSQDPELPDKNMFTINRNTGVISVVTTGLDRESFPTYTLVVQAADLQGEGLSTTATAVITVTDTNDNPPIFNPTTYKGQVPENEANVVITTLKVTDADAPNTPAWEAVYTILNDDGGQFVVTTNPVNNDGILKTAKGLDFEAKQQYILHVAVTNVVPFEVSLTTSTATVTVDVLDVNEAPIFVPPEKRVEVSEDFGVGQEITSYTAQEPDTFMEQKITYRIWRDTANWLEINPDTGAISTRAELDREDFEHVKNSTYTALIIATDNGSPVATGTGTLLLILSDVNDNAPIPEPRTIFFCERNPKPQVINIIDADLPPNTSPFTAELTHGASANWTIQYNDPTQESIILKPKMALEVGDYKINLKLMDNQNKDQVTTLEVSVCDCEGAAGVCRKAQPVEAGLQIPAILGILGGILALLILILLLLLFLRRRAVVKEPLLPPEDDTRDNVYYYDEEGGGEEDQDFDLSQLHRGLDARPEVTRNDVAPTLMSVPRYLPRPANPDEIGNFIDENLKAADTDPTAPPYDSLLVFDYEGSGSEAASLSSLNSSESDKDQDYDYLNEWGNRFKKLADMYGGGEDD
# UniProt P17655, residues 2-700: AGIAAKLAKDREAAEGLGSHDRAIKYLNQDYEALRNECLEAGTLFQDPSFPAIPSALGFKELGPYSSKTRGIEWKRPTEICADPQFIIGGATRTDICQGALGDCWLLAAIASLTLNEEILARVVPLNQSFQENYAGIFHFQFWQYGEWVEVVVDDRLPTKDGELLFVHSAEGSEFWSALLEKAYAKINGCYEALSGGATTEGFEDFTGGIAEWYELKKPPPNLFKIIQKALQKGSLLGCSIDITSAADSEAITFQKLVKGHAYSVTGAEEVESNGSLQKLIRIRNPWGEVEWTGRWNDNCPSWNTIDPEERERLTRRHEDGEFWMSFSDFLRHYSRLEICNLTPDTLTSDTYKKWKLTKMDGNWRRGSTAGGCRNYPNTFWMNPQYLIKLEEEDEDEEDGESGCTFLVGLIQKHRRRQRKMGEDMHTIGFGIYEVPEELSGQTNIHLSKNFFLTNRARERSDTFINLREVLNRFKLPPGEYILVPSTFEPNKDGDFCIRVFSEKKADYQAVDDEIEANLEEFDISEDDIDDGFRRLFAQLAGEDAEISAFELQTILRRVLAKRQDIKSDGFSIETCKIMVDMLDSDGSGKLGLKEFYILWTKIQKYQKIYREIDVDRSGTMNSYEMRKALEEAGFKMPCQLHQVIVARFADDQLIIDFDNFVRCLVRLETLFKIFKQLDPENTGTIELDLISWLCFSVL
# These are yes or no findings as the source states them, for the method shown. In cells and extracts the contact can be indirect. Some binding calls cover weakened binding; strength is not graded here.
# Molecular target: E-cadherin (human) (UniProt P12830)
# Test: co-immunoprecipitation and confocal imaging, human airway epithelial cells stimulated with TLR2 ligands
substance,measurement,value
calpain 2 (m-calpain) (from UniProt P17655 2-700) (enzyme),binding,binds
